Experimental data published in publication PMC11672294, “The Antipsychotic Drug Aripiprazole Suppresses Colorectal Cancer by Targeting LAMP2a to Induce RNH1/miR‐99a/mTOR‐Mediated Autophagy and Apoptosis” (Advanced Science, 2024).
Structures can show the parent of a compound that is named as a salt. Only a part is listed here, and it is no random draw.

System: HT29
Conditions: 72 h, relative to DMSO; 10 µM
Description: To investigate the key signaling pathways and biological processes involved in CRC progression, we analyzed the National Center for Biotechnology Information Gene Expression Omnibus (GEO) dataset GSE115313, which included 42 CRC and paired normal tissues (Figure 1A). […] Next, we performed an Annexin V‐fluorescein isothiocyanate (FITC)/propidium iodide (PI) staining assay to determine the effect of aripiprazole on apoptosis in CRC cells. […] A) Principal component analysis of GEO dataset (GSE115313), which includes 42 CRC and paired normal tissues. B) Gene Ontology pathway analysis of the DEPs between CRC and paired normal tissues. […] D) Schematic diagram for identifying anticancer drugs amongst an US Food and Drug Administration‐approved small‐molecule library (616 compounds) using WST‐1 assay. E) HT29 cells were treated with the 616 drugs (10 µM) individually or with dimethyl sulfoxide for 72 h, followed by WST‐1 assay. […] J) Mice bearing HT29‐derived tumor xenografts were intragastrically administered with aripiprazole (10 or 20 mg kg^−1) once every 2 d, n = 6 mice/group. […] Bars, SD; ^* p < 0.05; ^** p < 0.01; ^*** p < 0.001; ns, no significant difference. The WST‐1 Cell Proliferation and Cytotoxicity Assay Kit (Beyotime Biotechnology, Shanghai, China) was used to measure cell viability, as described previously.^[ [10] ^] CRC cells were seeded into 96‐well plates and treated with different drug concentrations. Following that, WST‐1 was added to the plate and incubated with the cells for 2 h, at 37 °C. Absorbance at the wavelength of 450 nm was measured using an automated microplate spectrophotometer (BioTek Instruments, Winooski, VT, USA).

Row | SMILES | Relative cell viability (%)
1 | CCN(CC)CC(=O)Nc1c(C)cccc1C [Lidocaine] | 96.11%
2 | O=C(O)COCCN1CCN(C(c2ccccc2)c2ccc(Cl)cc2)CC1 (stereo not shown) [Cetirizine DiHCl] | 68.07%
3 | CC(C)NC[C@@H](O)COc1ccc(CC(N)=O)cc1 [(R)-(+)-Atenolol] | 59.39%
4 | CN1[C@@H]2CC[C@H]1C[C@@H](OC(=O)C(CO)c1ccccc1)C2 (stereo partly shown) [Atropine] | 116.1%
5 | CN(C)CCOC(c1ccccc1)c1ccccc1 [Diphenhydramine HCl] | 105.9%
6 | CC(C)c1c(C(=O)Nc2ccccc2)c(-c2ccccc2)c(-c2ccc(F)cc2)n1CC[C@@H](O)C[C@@H](O)CC(=O)O [Atorvastatin Calcium] | 113.8%
7 | Cc1cc(NS(=O)(=O)c2ccc(N)cc2)no1 [Sulfamethoxazole] | 138.2%
